Reference: US20050100919

Assays:
thrombin [1] = assay: EMSA; details: only a fraction bound; 1 uM aptamer, 10 uM thrombin in TBB; purified native protein; protein details: purchased from Enzyme Research Lab; label: 32P; single-stranded DNA; variant of G15D
thrombin [2] = assay: competition with a labelled probe; details: decreased binding versus G15D4d/5d/6d, TBB; purified native protein; protein details: purchased from Enzyme Research Lab; label: 32P; single-stranded DNA; variant of G15D

CCAACCAGGTTGGTGTGGTTGG [G15D7d]
binding result (thrombin [1]): binds more weakly
binding result (thrombin [2]): binds more weakly

A weaker result is weaker than the reference pair of the same experiment.
